Laboratory results: patent US20110245145A1
Results are given in words; binding and its absence hold for the method and conditions named. For some assays here: Binding seen in cells or lysates may run through a third protein. Some results given as binding are weak or reduced against the parent protein; the word gives no strength.

Sequences of proteins named here, by UniProt entry; tags and fusion partners are left off. Residues count along the entry.
UniProt P31750: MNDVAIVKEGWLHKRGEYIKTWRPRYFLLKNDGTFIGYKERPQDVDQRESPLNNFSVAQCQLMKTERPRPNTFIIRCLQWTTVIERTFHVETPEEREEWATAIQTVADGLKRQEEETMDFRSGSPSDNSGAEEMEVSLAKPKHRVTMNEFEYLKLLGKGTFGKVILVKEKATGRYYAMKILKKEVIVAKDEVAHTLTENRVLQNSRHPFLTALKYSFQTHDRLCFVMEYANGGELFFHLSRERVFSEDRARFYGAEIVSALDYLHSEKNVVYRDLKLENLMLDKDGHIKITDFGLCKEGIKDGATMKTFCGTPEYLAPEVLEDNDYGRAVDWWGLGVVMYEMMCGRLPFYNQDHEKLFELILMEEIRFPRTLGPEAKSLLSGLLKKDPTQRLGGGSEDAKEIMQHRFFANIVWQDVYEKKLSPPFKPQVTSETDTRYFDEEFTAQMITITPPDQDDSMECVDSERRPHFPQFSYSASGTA
UniProt P15208, residues 28-1372: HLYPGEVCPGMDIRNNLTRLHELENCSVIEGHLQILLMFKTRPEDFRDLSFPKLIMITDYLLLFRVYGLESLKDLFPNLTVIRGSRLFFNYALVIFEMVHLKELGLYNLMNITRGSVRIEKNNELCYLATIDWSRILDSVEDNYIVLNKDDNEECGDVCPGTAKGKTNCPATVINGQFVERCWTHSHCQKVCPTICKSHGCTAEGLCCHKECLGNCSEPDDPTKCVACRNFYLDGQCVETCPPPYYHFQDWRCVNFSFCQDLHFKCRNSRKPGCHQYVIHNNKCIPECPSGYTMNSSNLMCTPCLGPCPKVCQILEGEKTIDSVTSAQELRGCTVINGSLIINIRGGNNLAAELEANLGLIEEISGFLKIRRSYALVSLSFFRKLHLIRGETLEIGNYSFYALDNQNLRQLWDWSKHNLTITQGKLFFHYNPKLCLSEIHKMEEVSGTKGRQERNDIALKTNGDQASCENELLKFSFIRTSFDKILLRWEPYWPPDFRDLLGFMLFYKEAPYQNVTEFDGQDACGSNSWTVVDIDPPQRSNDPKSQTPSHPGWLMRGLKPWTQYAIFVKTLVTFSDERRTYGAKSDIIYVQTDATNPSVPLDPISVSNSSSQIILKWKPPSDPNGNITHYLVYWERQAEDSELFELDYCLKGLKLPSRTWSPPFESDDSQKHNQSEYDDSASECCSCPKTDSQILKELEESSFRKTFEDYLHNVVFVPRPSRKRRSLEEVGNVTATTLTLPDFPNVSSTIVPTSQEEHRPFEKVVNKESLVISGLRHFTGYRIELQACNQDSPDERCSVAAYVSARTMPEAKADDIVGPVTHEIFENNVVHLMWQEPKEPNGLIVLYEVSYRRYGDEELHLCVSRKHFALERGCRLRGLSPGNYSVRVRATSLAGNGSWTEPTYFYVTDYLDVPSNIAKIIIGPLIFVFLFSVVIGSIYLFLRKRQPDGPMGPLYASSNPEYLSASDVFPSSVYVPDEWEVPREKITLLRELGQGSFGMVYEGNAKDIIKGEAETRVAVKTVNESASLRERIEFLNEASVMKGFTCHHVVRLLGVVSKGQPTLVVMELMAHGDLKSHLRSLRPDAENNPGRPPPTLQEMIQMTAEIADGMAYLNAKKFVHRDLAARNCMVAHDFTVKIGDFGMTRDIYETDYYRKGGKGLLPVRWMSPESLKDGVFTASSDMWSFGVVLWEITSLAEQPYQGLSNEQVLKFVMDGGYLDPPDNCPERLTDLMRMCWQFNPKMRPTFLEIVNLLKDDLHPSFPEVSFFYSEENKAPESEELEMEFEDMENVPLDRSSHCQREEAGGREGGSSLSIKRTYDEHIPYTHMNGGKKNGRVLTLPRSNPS
UniProt P06213, residues 28-1382: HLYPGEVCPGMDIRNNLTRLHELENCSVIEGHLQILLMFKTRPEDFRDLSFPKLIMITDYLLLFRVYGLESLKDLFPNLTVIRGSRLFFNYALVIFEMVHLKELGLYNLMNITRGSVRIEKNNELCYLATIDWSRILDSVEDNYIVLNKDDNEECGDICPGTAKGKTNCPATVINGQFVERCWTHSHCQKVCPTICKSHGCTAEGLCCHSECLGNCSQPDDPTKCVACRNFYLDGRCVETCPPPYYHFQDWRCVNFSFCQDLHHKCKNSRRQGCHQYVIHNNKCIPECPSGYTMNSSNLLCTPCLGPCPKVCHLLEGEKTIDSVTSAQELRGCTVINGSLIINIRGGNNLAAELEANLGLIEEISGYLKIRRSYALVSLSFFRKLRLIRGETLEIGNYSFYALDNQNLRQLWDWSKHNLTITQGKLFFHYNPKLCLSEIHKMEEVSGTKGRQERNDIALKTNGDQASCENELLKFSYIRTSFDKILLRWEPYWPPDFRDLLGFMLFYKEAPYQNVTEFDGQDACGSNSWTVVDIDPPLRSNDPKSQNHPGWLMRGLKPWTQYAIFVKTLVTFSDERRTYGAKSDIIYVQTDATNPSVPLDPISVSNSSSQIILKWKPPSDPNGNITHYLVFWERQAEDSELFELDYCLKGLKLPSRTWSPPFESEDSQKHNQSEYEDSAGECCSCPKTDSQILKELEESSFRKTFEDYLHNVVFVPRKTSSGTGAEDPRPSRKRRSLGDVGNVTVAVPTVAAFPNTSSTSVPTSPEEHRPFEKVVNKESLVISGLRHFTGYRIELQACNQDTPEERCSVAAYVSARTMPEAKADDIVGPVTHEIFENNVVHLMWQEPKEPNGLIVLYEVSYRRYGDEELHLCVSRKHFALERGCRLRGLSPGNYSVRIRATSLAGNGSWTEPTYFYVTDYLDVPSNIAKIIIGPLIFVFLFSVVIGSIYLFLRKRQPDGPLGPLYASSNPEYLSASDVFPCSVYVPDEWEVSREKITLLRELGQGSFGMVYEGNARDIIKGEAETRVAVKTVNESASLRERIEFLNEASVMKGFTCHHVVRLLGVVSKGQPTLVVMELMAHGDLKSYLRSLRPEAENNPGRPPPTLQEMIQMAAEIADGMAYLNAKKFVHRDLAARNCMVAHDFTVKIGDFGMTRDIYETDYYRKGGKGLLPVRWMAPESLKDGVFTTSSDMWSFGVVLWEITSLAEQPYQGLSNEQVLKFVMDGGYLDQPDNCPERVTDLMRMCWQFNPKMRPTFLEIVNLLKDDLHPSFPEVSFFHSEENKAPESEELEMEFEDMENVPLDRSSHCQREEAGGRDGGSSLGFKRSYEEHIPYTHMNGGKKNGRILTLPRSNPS
UniProt Q91YI4: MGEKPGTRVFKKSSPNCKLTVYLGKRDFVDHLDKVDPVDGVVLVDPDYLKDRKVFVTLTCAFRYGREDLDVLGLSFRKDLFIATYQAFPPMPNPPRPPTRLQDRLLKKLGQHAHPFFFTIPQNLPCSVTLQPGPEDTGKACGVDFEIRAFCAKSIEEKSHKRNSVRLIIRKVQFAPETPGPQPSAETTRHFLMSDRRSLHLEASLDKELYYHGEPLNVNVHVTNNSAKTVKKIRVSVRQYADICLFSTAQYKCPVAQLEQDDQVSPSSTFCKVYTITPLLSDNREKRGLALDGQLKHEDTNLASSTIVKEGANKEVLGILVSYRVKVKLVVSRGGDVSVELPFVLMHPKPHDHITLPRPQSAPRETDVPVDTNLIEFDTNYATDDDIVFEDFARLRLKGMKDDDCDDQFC
UniProt P32121: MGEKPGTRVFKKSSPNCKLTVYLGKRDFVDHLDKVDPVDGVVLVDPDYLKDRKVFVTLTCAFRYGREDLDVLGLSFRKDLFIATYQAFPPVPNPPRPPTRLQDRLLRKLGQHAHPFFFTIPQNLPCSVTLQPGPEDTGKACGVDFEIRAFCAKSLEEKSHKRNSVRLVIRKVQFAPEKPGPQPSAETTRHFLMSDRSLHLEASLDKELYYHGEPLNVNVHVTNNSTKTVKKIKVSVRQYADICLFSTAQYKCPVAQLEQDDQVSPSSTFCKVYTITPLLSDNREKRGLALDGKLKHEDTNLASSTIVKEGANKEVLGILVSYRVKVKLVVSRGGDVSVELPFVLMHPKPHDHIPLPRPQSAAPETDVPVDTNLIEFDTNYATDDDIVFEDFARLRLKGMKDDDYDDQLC

Columns and labels:
[1] = target: endogenous Akt (mouse liver) (mouse) (UniProt P31750); assay: co-immunoprecipitation, C57BL/6 mouse liver lysate
[2] = target: insulin receptor (mouse liver, immunoprecipitated for IRβ) (mouse) (UniProt P15208); assay: immunoprecipitation for IRβ, liver of insulin-injected mice (FIG. 6B)
[3] = target: insulin receptor (mouse liver, immunoprecipitated for IRβ) (mouse) (UniProt P15208); assay: immunoprecipitation for IRβ, liver of insulin-injected mice
[4] = target: endogenous Akt (mouse liver) (mouse) (UniProt P31750); assay: co-immunoprecipitation, C57BL/6 mouse liver lysate (FIG. 5A)
[5] = target: insulin receptor of Hep3B hepatocytes (human) (UniProt P06213); assay: immunoprecipitation with anti-IR, Hep3B with or without 100 nM Wortmannin, then 100 nM insulin

Row | Substance | binding [1] | binding [2] | binding [3] | binding [4] | binding [5]
1 | endogenous βarrestin2 (mouse liver) (from UniProt Q91YI4 1-410) | binds | binds | binds | binds | –
2 | endogenous βarrestin2 of Hep3B hepatocytes (from UniProt P32121 1-409) | – | – | – | – | binds
